{"source": "PubChem BioAssay AID504834", "about": "(National Center for Advancing Translational Sciences (NCATS), 2011)", "note": "Hit rate of the full screen: of about 320,000 compounds, about 22,000 (6.9%) were called active. Inconclusive means that the source gave no clear call. Such entries were picked first, then a sample of the others. Calls follow the shape of the dose curve; as a rule, active = well fitted inhibition curve with a large enough effect; inconclusive = small, poorly fitted or top-dose-only effect, or another doubt; inactive = no such curve, though single readings can be large or run the other way. Potencies of inconclusive entries are doubtful fits and often do not repeat. Potency is read from the fitted curve at half-maximal effect."}
{"experiment": "Primary qHTS for delayed death inhibitors of the malarial parasite plastid, 96 hour incubation", "conditions": "P. falciparum luciferase reporter growth; series mostly up to 28.7 µM", "in_short": "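Infected RBCs, 2% Hct / 0.05% parasitemia final; luciferase-reporter P. falciparum; cpd 96 h, 37 C, 5% CO2; luciferase detection reagent; luminescence.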"}
{"smiles": "C#CCOCCOCCOCCNc1nc(N2CCOCC2)nc(N2CCN(C(=O)CCCCCCCCCCNC(=O)Cn3cc(CCCCCN)nn3)CC2)n1", "Potency": "inconclusive: 9.28 µM [inhibitor, partial curve, poor fit]"}
{"smiles": "O=C(Cn1ncc(Cl)c(Cl)c1=O)NC1CCCCC1", "Potency": "inconclusive: 16.5 µM [inhibitor, single point]"}
{"smiles": "CSc1nsc(/C=C/Nc2ccc(Cl)cc2)c1C#N", "Potency": "active: 1.17 µM"}
{"smiles": "CCOC(=O)c1sc(NC(=O)CSc2n[nH]c(CC(C)C)n2)nc1C", "Potency": "inconclusive: 10.4 µM [inhibitor, single point]"}
{"smiles": "Cc1cccc(Nc2nc(-c3ccccc3)c(C(=O)Nc3cccnc3)s2)c1", "Potency": "inconclusive: 10.4 µM [inhibitor, partial curve, poor fit]"}
{"smiles": "O=C(O)C1CC1C(=O)Nc1nc2c(Cl)cccc2s1", "note": "(stereo not drawn)", "Potency": "inconclusive: 0.465 µM [inhibitor, full curve, poor fit]"}
{"smiles": "Cc1ccccc1CC(=O)NC1CCCCCC1", "Potency": "inconclusive: 18.5 µM [inhibitor, single point]"}
{"smiles": "CCOc1ccc(/C=N/NC(=S)NC2CC3C=CC2C3)cc1", "note": "(stereo not drawn)", "Potency": "active: 8.28 µM"}
{"smiles": "CC(C)N(C(=O)COC(=O)c1cccc(C(=O)OCC(=O)N(C(C)C)C(C)C)n1)C(C)C", "Potency": "inactive"}
{"smiles": "Cc1ccccc1Oc1cc(NC(=O)Cn2cnc([N+](=O)[O-])c2)cc([N+](=O)[O-])c1", "Potency": "inconclusive: 9.28 µM [inhibitor, partial curve, poor fit]"}
{"smiles": "COc1ccc(-n2nnnc2-c2cccnc2)cc1", "Potency": "active: 9.28 µM"}
{"smiles": "O=c1c2ccccc2nnn1Cc1cccc2ccccc12", "Potency": "inconclusive: 13.1 µM [inhibitor, single point]"}
{"smiles": "Cc1ccc(-c2cc(C(F)F)n3ncc(C(=O)NN4CCCCC4)c3n2)cc1", "Potency": "inactive"}
{"smiles": "Cn1c(SCC(=O)N2CCCC2)nnc1-c1cnccn1", "Potency": "inactive"}
{"smiles": "COc1ccc(C(=O)Nc2cc(Cl)ccc2-n2cncn2)c(OC)c1OC", "Potency": "inconclusive: 18.5 µM [inhibitor, single point]"}
{"smiles": "CCn1nc(C)c(NC(=O)c2cnn3c(C(F)F)cc(-c4ccccc4)nc23)c1C", "Potency": "inconclusive: 2.62 µM [inhibitor, partial curve]"}
{"smiles": "COc1cccc(NC(=O)COC(=O)c2c3c(nc4ccccc24)CCC(C)C3)c1", "note": "(stereo not drawn)", "Potency": "inconclusive: 0.0329 µM [inhibitor, full curve, poor fit]"}
{"smiles": "Cc1onc(-c2ccccc2Cl)c1C(=O)Nc1ccccc1C(N)=O", "Potency": "inconclusive: 0.037 µM [inhibitor, full curve, poor fit]"}
{"smiles": "O=C(Nc1nc(-c2cc(Cl)sc2Cl)cs1)c1ccccc1", "Potency": "inconclusive: 10.4 µM [inhibitor, single point]"}
{"smiles": "CC(=O)c1cccc(CN2CCC(n3nccc3NC(=O)CCCc3ccccc3)CC2)c1", "Potency": "inconclusive: 18.5 µM [inhibitor, single point]"}
{"smiles": "C=CCN1C(=O)C2(NNc3ccccc3O2)c2ccccc21", "note": "(stereo not drawn)", "Potency": "active: 11.7 µM"}
{"smiles": "Cc1nnc(NC(=O)CSc2nccn2C)s1", "Potency": "inactive"}
{"smiles": "CN1CCC2(CC1)N=C(c1ccc(F)cc1)C(=S)N2C(=O)c1ccccc1", "Potency": "inconclusive: 10.4 µM [inhibitor, single point]"}
{"smiles": "CCOc1ccc2cc(C3CC(c4ccco4)=NN3S(=O)(=O)c3ccccc3)c(Cl)nc2c1", "note": "(stereo not drawn)", "Potency": "active: 13.1 µM"}
{"smiles": "O=C(O)Cn1c(-c2ccccc2)cc2ccccc21", "Potency": "inactive"}
{"smiles": "COc1ccc(CN(C(=O)c2snc(C(N)=O)c2N)C(CC(C)C)C(=O)NC2CCCCC2)cc1", "note": "(stereo not drawn)", "Potency": "inconclusive: 11.7 µM [inhibitor, single point]"}
{"smiles": "CC(=O)N1CCN(c2ccc(Oc3ncnc4sccc34)cc2)CC1", "Potency": "inconclusive: 8.28 µM [inhibitor, partial curve, poor fit]"}
{"smiles": "CCCCCCOC(=O)C[N+](C)(C)CCOC1CC2CCC1(C)C2(C)C", "note": "(stereo not drawn)", "Potency": "active: 0.738 µM"}
{"smiles": "CN(CC(=O)Nc1ccc(Cl)cc1)CC(=O)Nc1cccc2ccccc12", "Potency": "inconclusive: 18.5 µM [inhibitor, single point]"}
{"smiles": "COc1ccc(-c2cc(C)no2)cc1S(=O)(=O)Nc1cccc(C)c1", "Potency": "inconclusive: 11.7 µM [inhibitor, single point]"}
{"smiles": "O=C(Nc1ccncc1)c1cc2ccccc2cc1O", "Potency": "active: 8.28 µM"}
{"smiles": "O=C(c1ccc(Br)o1)N1CCN(c2ncccn2)CC1", "Potency": "inconclusive: 13.1 µM [inhibitor, single point]"}
{"smiles": "CCOP(=O)(OCC)c1nc(-c2ccc(F)cc2)oc1NCc1ccccc1", "Potency": "inconclusive: 4.15 µM [inhibitor, partial curve, poor fit]"}
{"smiles": "O=C(NCc1ccco1)C(c1ccc(F)cc1)N(C(=O)Cc1cccs1)c1cccnc1", "note": "(stereo not drawn)", "Potency": "inactive"}
{"smiles": "CCOC(=O)C1CCN(S(=O)(=O)c2ccc(OC)c(C(=O)N3CCCCC3)c2)CC1", "Potency": "inactive"}
{"smiles": "N#Cc1c(NC(=S)NC(=O)c2ccccc2)sc2c1CCCC2", "Potency": "inconclusive: 20.8 µM [inhibitor, partial curve, poor fit]"}
{"smiles": "Cc1ccc(NC(=O)C2CCCN(C(=O)c3ccc(Cl)cc3)C2)cc1", "note": "(stereo not drawn)", "Potency": "inactive"}
{"smiles": "O=C(Nc1cc(Cl)cc(Cl)c1)Nc1cnccn1", "Potency": "inactive"}
{"smiles": "CCCc1cc2c(cc1NC(=O)c1ccc(Br)cc1)OCO2", "Potency": "inactive"}
{"smiles": "O=C(Cc1ccccc1)Nc1ccc(S(=O)(=O)N2CCOCC2)cc1", "Potency": "inconclusive: 10.4 µM [inhibitor, single point]"}
{"smiles": "COc1ccc(Cn2c(C3CC3)nc3ccc(NC(C)=O)cc3c2=O)cc1", "Potency": "inconclusive: 7.38 µM [inhibitor, partial curve, poor fit]"}
{"smiles": "CN(CC(=O)Nc1ccccc1Br)C(=O)c1ccc(-c2ccc(Cl)cc2)o1", "Potency": "inconclusive: 13.1 µM [inhibitor, partial curve, poor fit]"}
{"smiles": "Cc1cccc(C)c1NC(=O)Cn1nnc(-c2ccc(N3CCOCC3)cc2)n1", "Potency": "inconclusive: 4.15 µM [inhibitor, single point]"}
{"smiles": "COc1ccc(Cl)cc1NC(=O)NCC1CCN(C(=O)OC(C)(C)C)CC1", "Potency": "inconclusive: 13.1 µM [inhibitor, single point]"}
{"smiles": "COc1cccc(C(=O)C2CCCN(Cc3cnn(C(C)C)c3)C2)c1", "note": "(stereo not drawn)", "Potency": "inconclusive: 18.5 µM [inhibitor, partial curve, poor fit]"}
{"smiles": "NC(=O)C1CCN(C(=O)COc2ccc3c(c2)oc(=O)c2ccccc23)CC1", "Potency": "inconclusive: 16.5 µM [inhibitor, single point]"}
{"smiles": "C#CCNc1c2c(nc3nnnn13)CCCC2", "Potency": "inconclusive: 0.522 µM [inhibitor, full curve, poor fit]"}
{"smiles": "CNS(=O)(=O)c1cc(N)ccc1C", "Potency": "inactive"}
{"smiles": "CCOc1ccc(CCNC(=O)CCS(=O)(=O)c2ccc(OC)cc2)cc1OCC", "Potency": "inconclusive: 18.5 µM [inhibitor, single point]"}
{"smiles": "COC(=O)c1sc(NC(=S)NNC(=O)c2c(Br)c(C)nn2C)c(C(=O)OC)c1C", "Potency": "inconclusive: 18.5 µM [inhibitor, single point]"}
{"smiles": "Cc1cc(N2CCN(c3ccccc3Cl)CC2)n2cc(-c3ccccc3)nc2n1", "Potency": "inconclusive: 13.1 µM [inhibitor, partial curve]"}
{"smiles": "CC(C)c1ccc(N(CC(=O)NCCc2ccccc2)C(=O)c2csnn2)cc1", "Potency": "inactive"}
{"smiles": "C=CCOc1ccc(/C=C/C(=O)Nc2ccc(C(=O)NC)cc2)cc1", "Potency": "inconclusive: 0.738 µM [inhibitor, partial curve]"}
{"smiles": "COC(=O)c1c(NC(=O)CN2CCN(c3ccccc3OC)CC2)c2cc(C)ccc2n1C", "Potency": "inconclusive: 9.28 µM [inhibitor, partial curve, poor fit]"}
{"smiles": "CC(C)(C)C(=O)CNS(=O)(=O)c1ccc(S(=O)(=O)NC2CC2)cc1", "Potency": "inconclusive: 16.5 µM [inhibitor, partial curve, poor fit]"}
{"smiles": "COc1ccc(NC(=O)CNC(=O)CC23CC4CC(CC(C4)C2)C3)c(OC)c1", "Potency": "inconclusive: 16.5 µM [inhibitor, single point]"}
{"smiles": "COc1ccc(NC(=O)c2cc(S(=O)(=O)N3CCCC3)ccc2C)cn1", "Potency": "inactive"}
{"smiles": "CCOC(=O)c1ccc(-n2c(CN3CCN(CC)CC3)nc3ccc([N+](=O)[O-])cc3c2=O)cc1", "Potency": "inconclusive: 10.4 µM [inhibitor, single point]"}
{"smiles": "O=c1c2ccccc2nc(-c2ccccc2Cl)n1-c1cccc(O)c1", "Potency": "inconclusive: 11.7 µM [inhibitor, partial curve, poor fit]"}
{"smiles": "CC1(C)CC(=O)C(N=Nc2ccc(Br)cc2)=C(O)C1", "Potency": "inactive"}
{"smiles": "Cc1ccc(NC(=S)NC2CCSc3ccccc32)cc1C", "note": "(stereo not drawn)", "Potency": "inconclusive: 18.5 µM [inhibitor, single point]"}
{"smiles": "CC(C)c1ccc(S(=O)(=O)N2CCCCC2)cc1", "Potency": "inconclusive: 1.17 µM [inhibitor, partial curve, poor fit]"}
{"smiles": "COCCNC(=O)C1CC(c2ccccc2[N+](=O)[O-])=NO1", "note": "(stereo not drawn)", "Potency": "inconclusive: 0.0738 µM [inhibitor, full curve, poor fit]"}
{"smiles": "CCOC(=O)C1=NN(C(C)=O)C2(CC(=O)N(c3cccc(C)c3)C2=O)C1", "note": "(stereo not drawn)", "Potency": "inactive"}
{"smiles": "CCOC(=O)c1ccc(NC(=O)CSc2nnnn2CCCO)cc1", "Potency": "inconclusive: 0.0208 µM [inhibitor, partial curve, poor fit]"}
{"smiles": "O=C(CSc1nnnn1-c1cccnc1)Nc1cccc(Cl)c1", "Potency": "inactive"}
{"smiles": "COc1cccc(C(=O)N(Cc2ccco2)c2c(N)n(Cc3ccccc3)c(=O)[nH]c2=O)c1", "Potency": "inconclusive: 9.28 µM [inhibitor, partial curve, poor fit]"}
{"smiles": "CCNC(=S)N(CCc1c(C)[nH]c2ccc(C)cc12)Cc1cccnc1", "Potency": "inconclusive: 18.5 µM [inhibitor, single point]"}
